Experimental data from patent publication US11261222B2, “Transdermal peptide with nuclear localization ability and use thereof” (SOOCHOW UNIVERSITY, priority 2017, dated 2022).
Part of at least one peptide drawing is inferred or uncertain, most often the ends. Where a SMILES comes first, the peptide text is derived from it. The star is where a group is joined. FITC = O=C1OC2(c3ccc(O)cc3Oc3cc(O)ccc32)c2ccc(NC(=S)*)cc21

What was measured:
Type in all cases: cell-based
TE-1 cells = assay: entry into TE-1 cells and nuclear localization, confocal fluorescence microscopy; conditions: FITC-labeled peptide 10 μmol/L, 4 hrs, DAPI nuclear staining
HaCaT cells [1] = assay: entry into HaCaT cells and nuclear localization, confocal fluorescence microscopy; conditions: FITC-labeled peptide 10 μmol/L, 4 hrs, DAPI nuclear staining
HaCaT cells [2] = assay: dose and time dependence of entry into HaCaT cells
human fibroblasts WS1 = assay: entry into WS1 cells and nuclear localization, confocal fluorescence microscopy; conditions: FITC-labeled peptide 10 μmol/L, 4 hrs, DAPI nuclear staining

SMILES | green fluorescent signal in the nuclei of the cells (TE-1 cells) | green fluorescent signal in the nuclei of the cells (HaCaT cells [1]) | percentage of cells having fluorescence signal in the nuclei, dependence on dose (HaCaT cells [2]; HaCaT cells, 0, 3, 6, 10 μmol/L, 4 hrs (FIG. 4A)) | percentage of cells having fluorescence signal in the nuclei, dependence on time (HaCaT cells [2]; HaCaT cells, 10 μmol/L, 0, 60, 120, 240 min (FIG. 4B)) | green fluorescent signal in the nuclei of the cells (human fibroblasts WS1)
CC(C)C[C@H](NC(=O)[C@H](Cc1ccc(O)cc1)NC(=O)[C@H](CCCCN)NC(=O)[C@H](CCCCN)NC(=O)CNC(=O)[C@H](CO)NC(=O)[C@@H]1CCCN1C(=O)[C@H](CC(C)C)NC(=O)[C@H](CCC(=O)O)NC(=O)[C@H](CCCCN)NC(=O)[C@@H](NC(=O)[C@H](Cc1ccccc1)NC(=O)[C@@H](NC(=O)CNC(=O)[C@H](CCCCN)NC(=O)[C@@H]1CCCN1C(=O)[C@H](Cc1ccccc1)NC(=O)[C@H](CC(C)C)NC(=O)[C@H](CCCCN)NC(=O)[C@H](CCCCN)NC(=S)Nc1ccc2c(c1)C(=O)OC21c2ccc(O)cc2Oc2cc(O)ccc21)C(C)C)[C@@H](C)O)C(=O)N[C@@H](CCCNC(=N)N)C(=O)O [peptide of the present invention] ({FITC}-KKLFPKGVFTKELPSGKKYLR-OH) | a green fluorescent signal can be observed in the nuclei of the cells | a green fluorescent signal can be observed in the nuclei of the cells | dose-dependent | time dependent | a green fluorescent signal can be observed in the nuclei of the cells
CC[C@H](C)[C@H](NC(=O)[C@H](CC(=O)O)NC(=O)[C@H](CCCCN)NC(=O)[C@H](CO)NC(=O)[C@H](Cc1c[nH]c2ccccc12)NC(=O)[C@H](C)NC(=O)[C@H](CC(C)C)NC(=O)[C@H](Cc1c[nH]cn1)NC(=O)[C@H](CC(=O)O)NC(=O)[C@H](CCC(=O)O)NC(=O)[C@@H](NC(=O)[C@H](CO)NC(=O)[C@H](CC(=O)O)NC(=O)[C@@H](NC(=O)[C@H](CO)NC(=O)[C@H](CC(C)C)NC(=O)[C@H](C)NC(=O)[C@@H](NC(=S)Nc1ccc2c(c1)C(=O)OC21c2ccc(O)cc2Oc2cc(O)ccc21)[C@@H](C)CC)[C@@H](C)CC)C(C)C)C(=O)N[C@@H](CC(N)=O)C(=O)N[C@@H](C)C(=O)O [irrelevant control polypeptide, reference compound] ({FITC}-IALSIDSVEDHLAWSKDINA-OH) | no green fluorescence | no green fluorescence |  |  | no green fluorescence
